Experimental data from paper PMC9663306.

Target: T1, SF-IL-17RC (murine IL-17RC with C-terminal 2xStrep-3xFlag tag), in ST2 cells (mouse) (UniProt Q8K4C2)
T1 sequence (chain, N-glycosylated (100 kDa and 150 kDa forms)): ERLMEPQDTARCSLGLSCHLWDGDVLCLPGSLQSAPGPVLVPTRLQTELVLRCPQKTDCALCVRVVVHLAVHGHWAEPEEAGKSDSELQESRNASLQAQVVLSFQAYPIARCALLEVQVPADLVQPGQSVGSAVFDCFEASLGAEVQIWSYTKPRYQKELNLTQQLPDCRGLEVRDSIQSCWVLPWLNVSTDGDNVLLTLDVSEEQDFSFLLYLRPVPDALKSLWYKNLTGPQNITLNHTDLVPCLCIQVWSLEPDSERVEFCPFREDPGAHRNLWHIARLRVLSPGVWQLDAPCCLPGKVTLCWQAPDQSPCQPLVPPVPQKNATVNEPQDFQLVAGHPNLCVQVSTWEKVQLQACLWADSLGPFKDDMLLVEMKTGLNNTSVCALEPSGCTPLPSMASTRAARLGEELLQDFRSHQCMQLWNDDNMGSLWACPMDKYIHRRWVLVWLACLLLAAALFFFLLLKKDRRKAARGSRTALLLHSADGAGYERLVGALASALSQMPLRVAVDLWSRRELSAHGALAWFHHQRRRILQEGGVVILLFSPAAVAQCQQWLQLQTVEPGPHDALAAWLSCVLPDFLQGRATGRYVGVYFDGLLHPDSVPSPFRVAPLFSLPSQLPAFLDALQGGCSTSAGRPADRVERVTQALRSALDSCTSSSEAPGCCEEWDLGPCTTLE
Test: co-IP; Flag IP from lysates of Cmtm4−/− ST2 cells transduced with Myc-tagged members of the CMTM family (CMTM1–8) together with SF-IL-17RC, immunoblot

- binding: no binding
Substance: Myc-tagged CMTM2 (mouse)

Results are given in words; binding and its absence hold for the method and conditions named. Binding seen in cells or lysates may run through a third protein. Sequences can lack the tags named with a protein.
